# Reference: PubChem BioAssay AID720708 (National Center for Advancing Translational Sciences (NCATS), 2013)
# The chains behind the UniProt entries cited, without tags or fusion partners. Where a name states a change or a piece, a line headed by the entry shows the natural chain unless it says otherwise.
# UniProt Q8WZA2: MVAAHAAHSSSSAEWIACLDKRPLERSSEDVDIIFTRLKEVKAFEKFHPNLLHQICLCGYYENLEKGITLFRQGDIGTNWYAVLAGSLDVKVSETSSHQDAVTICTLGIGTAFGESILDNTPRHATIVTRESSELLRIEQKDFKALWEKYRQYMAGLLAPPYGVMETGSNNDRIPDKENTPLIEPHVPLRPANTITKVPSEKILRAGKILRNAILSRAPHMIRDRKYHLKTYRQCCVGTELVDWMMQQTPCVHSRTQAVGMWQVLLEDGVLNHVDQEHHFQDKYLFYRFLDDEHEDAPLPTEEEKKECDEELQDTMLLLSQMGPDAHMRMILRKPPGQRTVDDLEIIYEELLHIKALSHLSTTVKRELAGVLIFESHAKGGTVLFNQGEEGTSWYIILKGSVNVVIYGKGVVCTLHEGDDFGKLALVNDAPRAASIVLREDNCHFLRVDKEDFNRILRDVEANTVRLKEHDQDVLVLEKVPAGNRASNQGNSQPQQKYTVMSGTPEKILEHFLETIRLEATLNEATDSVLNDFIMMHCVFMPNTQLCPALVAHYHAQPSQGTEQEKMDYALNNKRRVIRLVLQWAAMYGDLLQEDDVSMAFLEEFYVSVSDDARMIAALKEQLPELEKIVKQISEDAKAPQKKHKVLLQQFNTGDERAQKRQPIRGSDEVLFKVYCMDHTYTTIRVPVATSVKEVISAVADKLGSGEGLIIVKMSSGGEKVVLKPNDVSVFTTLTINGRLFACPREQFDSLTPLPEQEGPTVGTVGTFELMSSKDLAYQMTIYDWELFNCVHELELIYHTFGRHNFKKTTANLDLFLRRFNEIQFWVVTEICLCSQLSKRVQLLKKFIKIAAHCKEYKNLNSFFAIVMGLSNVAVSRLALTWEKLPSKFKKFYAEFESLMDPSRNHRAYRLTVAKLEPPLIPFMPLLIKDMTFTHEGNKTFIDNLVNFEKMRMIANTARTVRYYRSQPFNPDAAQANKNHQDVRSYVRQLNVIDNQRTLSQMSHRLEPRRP
# Most of the hits are listed elsewhere, so they are rarer here than in the full data. The source made the active and inactive calls. Calls come from the whole dose curve; as a rule, active = well fitted inhibition curve with a large enough effect; inconclusive = small, poorly fitted or top-dose-only effect; inactive = no such curve, though single readings can be large or run the other way.
# Target: Rap guanine nucleotide exchange factor 4 (Homo sapiens) (UniProt Q8WZA2)
# Assay: qHTS for Antagonist of cAMP-regulated guanine nucleotide exchange factor 2 (EPAC2): primary screen; note: nearly all actives have a fitted effect of over 45% in size
# Details: EPAC2 GEF exchange of Rap1B-BODIPY-GDP, fluorescence; at 114 µM (top of the series)
# From the text: In multi-cellular eukaryotic organisms, the effects of cAMP are transduced by two ubiquitously-expressed intracellular cAMP receptors, the classic protein kinase A/cAMP-dependent protein kinase (PKA/cAPK) and the more recently discovered exchange protein directly activated by cAMP/cAMP-regulated guanine nucleotide exchange factor (EPAC/cAMP-GEF). Both PKA and EPAC are ubiquitously expressed in all tissues, and an increase in intracellular cAMP levels will lead to the activation of both PKA and EPAC. […]
# This qHTS will be used to screen the Molecular Libraries Small Molecule Repository (MLSMR) as a concentration-titration series using the NCGC unique quantitative screening (qHTS) platform to find inhibitors for EPAC2. […] Inhibitors are identified by monitoring the change in fluorescence signal as the exchanged free BODIPY-GDP has a reduced fluorescence compared to Rap1-bound BODIPY-GDP. […]
# Briefly, three uL of reagents (100 nM EPAC2, 250 nM RAP1B-BODIPY-GDP, 50 uM GDP) were dispensed into a 1536-well Greiner black solid-bottom medium binding assay plate. […] The assay plates were read at 5 minute intervals for 30 minutes in the ViewLux plate reader using 480nm excitation and 540nm emission filters. […]
# % is set by controls: 0 for no effect and ±100 for the full control effect.
row,Structure (SMILES),"activity, negative = inhibition"
1,O=C1/C(=C/c2ccncc2)Cc2ccccc21,inactive: 33.7%
2,CN1[C@@H]2CC[C@H]1CC(OC(=O)C(O)c1ccccc1)C2 (some centres not stated),inactive: 34.1%
